No constants are given. Whether binding was seen depends on the method and setting. For part of these data: A result given as binding can be weak or reduced; the word gives no strength. Tags and fused reporters may be left off the sequences shown.

Assay in all cases: two-hybrid; BacterioMatch II bacterial two-hybrid system; AsaA or its fragments on pBT, partners on pTRG; XL1-Blue MRFʹ; growth on M9 His-dropout dual-selective medium with Sm (12.5 μg/ml) and 3-AT (5 mM), 30 °C, 24 h
In test [1] the target is T1, AsaA 110th–150th aa fused to pBT (Acinetobacter baumannii ATCC 17978) (UniProt R9RHI2).
T1 sequence: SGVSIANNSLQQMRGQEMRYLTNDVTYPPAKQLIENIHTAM

Test [2] has as its target T2, AsaA 25th–110th aa fused to pBT (Acinetobacter baumannii ATCC 17978) (UniProt R9RHI2).
T2 sequence: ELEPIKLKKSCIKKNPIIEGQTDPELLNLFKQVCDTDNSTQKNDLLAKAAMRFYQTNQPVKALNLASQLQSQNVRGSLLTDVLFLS

The target in test [3] is T3, AsaA 25th–150th aa fused to pBT (Acinetobacter baumannii ATCC 17978) (UniProt R9RHI2).
T3 sequence: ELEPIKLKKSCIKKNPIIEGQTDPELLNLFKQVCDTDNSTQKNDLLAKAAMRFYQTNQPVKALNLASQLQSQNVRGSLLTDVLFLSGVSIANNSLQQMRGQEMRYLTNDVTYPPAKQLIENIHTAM

Test [4] addresses T4, AsaA 25th–190th aa fused to pBT (Acinetobacter baumannii ATCC 17978) (UniProt R9RHI2).
T4 sequence: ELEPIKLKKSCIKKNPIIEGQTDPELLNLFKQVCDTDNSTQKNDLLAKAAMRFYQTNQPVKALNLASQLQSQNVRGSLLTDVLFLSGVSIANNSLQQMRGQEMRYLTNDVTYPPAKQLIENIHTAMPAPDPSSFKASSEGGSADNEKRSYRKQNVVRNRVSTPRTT

For test [5], the target named is T5, AsaA 25th–70th aa fused to pBT (Acinetobacter baumannii ATCC 17978) (UniProt R9RHI2).
T5 sequence: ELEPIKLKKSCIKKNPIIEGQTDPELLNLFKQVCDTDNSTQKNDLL

The target in test [6] is T6, AsaA 70th–110th aa fused to pBT (Acinetobacter baumannii ATCC 17978) (UniProt R9RHI2).
T6 sequence: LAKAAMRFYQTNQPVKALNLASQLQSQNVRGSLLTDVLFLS

Test [7] has as its target T7, AsaA 70th–150th aa fused to pBT (Acinetobacter baumannii ATCC 17978) (UniProt R9RHI2).
T7 sequence: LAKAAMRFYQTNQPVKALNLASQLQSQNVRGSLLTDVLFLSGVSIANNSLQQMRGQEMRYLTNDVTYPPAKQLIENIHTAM

For test [8], the target named is AsaA excluding the N-terminal leader, fused to pBT (plasmid pBA) (Acinetobacter baumannii ATCC 17978).

In the case of “TssM_(1302(436–1041)) fused to pTRG (plasmid pTM_(1302(436–1041))) (Acinetobacter baumannii ATCC 17978) (domain or fragment)”, the binding entry in test [1] was “no binding”; in test [2], “no binding”; in test [3] it was “binds”; in test [4], “binds”; in test [5] it was “no binding”; in test [6], “no binding”. Further, the binding entry in test [7] is “binds”.

B1: TssB fused to pTRG (plasmid pTB) (protein, UniProt R9RIN9 1-167)
chain: MAKRESVQKKLQRIRPPRVQLTYDVEIGDAKEAKELPFVVGVMGDFSAASELERTKLKDKKFINVDLDNIDEVMESLSPRAAFQVDNTLTEEGGKMAVDLTFKSMEDFRPENVVQQVDPLKKLVEARERLTDLRNKISNSERLEDLLDEVLKNTDQIRKLSAEADHE
With B1, the binding result in test [8] was “no binding”.

B2: TssL fused to pTRG (plasmid pTL) (protein, UniProt R9RHK3 1-268)
chain: MSQSTGAPSLFDDGQIGTGGNNNSQSQAKLQAINLIDLLHDGFYLIFLIRNQYVPADPQRFREKILDLLNRFEQQAKKLQFSADDIHDAKYAFCALIDETIVTQQDPSYFNLQNAWLISPLQLSLFGSQLAGYQFFEILEQLRSRGKDRLAALEVFHYCLLLGFQGKYRIESIESLNHLVARVGDEIDYLKGKKVAFSPFSAIPDQIRNIIHRELPFFWILIFLLIFALLTFAGLRFMLNNQNDKALSTYQNVISAPQEQAHITIYLP
As to B2, in test [8], the binding entry is reported as “no binding”.

For the origin of these results see PMC6602968.
